# Primary screen of a compound library

From ChEMBL document CHEMBL3988442, “University of Dundee, Small-Polar-MMV Screening Library” (2021).

Mtb cholesterol medium: 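Growth of Mycobacterium tuberculosis over 4 days (cholesterol / DPPC medium with tyloxapol); the read-out is not stated. Compounds at 50 µM. Higher reads as more growth inhibition (inferred: compounds with an IC50 in retests scored well above the rest). Size under these conditions: about 69,000 compounds, about 370 of them at 50% or above in at least one test.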
Mtb glucose medium: 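Whole-cell growth test on Mycobacterium tuberculosis, read after 3 days in glucose-containing 7H9 medium; the read-out is not stated. Compounds at 50 µM. The record gives no direction; compounds that gave an IC50 in retests scored well above the rest, so higher reads as more growth inhibition. Size under these conditions: about 69,000 compounds, about 760 of them at 50% or above in at least one test.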

Values are the deposited “Percent Effect”, in %. How 0% and 100% were set is not recorded. Most values in the screen are low, and negative values occur. The compounds are a random part of those screened. Two or more numbers in one place are separate tests of the same structure; such repeats can differ widely.

SMILES	Mtb cholesterol medium	Mtb glucose medium
CC(C)(CNC1CCCN(Cc2ccccn2)C1)CN1CCOCC1 (configuration not stated)	20.9%	-3.067% and -1.571%
O=C(Nc1nc2c(s1)CN(S(=O)(=O)C1CC1)CC2)c1cccc(Cl)c1	17.74%	28.87%
CCSCC(C)NCc1nncn1C1CCCCC1 (configuration not stated)	-2.683%	-10.56% and 0.9122%
CSc1ncc(C(=O)N2CCN(c3ccccc3C)CC2C)cn1 (configuration not stated)	39.35%	62.95%
Cn1c(C(N)=O)cc2c1CN(C(=O)C1CCCN(C3CCCC3)C1)CC2 (configuration not stated)	12.43%	19.94%
COCCN1CCCC1c1nccnc1Nc1nccs1 (configuration not stated)	7.683%	23.53%
COc1cc(NC(=O)N2CCCC2c2ccco2)cc(OC)c1 (configuration not stated)	3.924%	25.34%
CCOc1ncnc2c1CCN(C(=O)c1ccncc1F)CC2.O=C(O)C(F)(F)F	-9.389%	25.63%
CC(C)Oc1ccc(CN2CCC(c3n[nH]c4ncccc34)CC2)cc1	28.12%	15.74%
O=C(O)C(F)(F)F.O=C(O)C(F)(F)F.[H][C@@]12CCCO[C@]1([H])[C@H](Oc1ncccc1F)CN2Cc1ccccn1	-9.974%	-13.15%
CC(C)c1ncc(CN2CCCC2c2[nH]ncc2C(=O)N(C)C)cn1 (configuration not stated)	-7.909%	-9.301%
CCc1nnsc1C(=O)NC1CCN(c2ccccn2)CC1	-3.573%	14.86%
CC(C)c1nccc(C2CC(=O)Nc3n[nH]c(C4CCC4)c32)n1 (configuration not stated)	-10.92%	-0.8051%
COCCOCC(=O)NC(C#N)c1ccccc1C (configuration not stated)	-8.876%	-15.63%
Cc1cc(F)ccc1CN1CCCC(O)(CN2CCCC2)C1 (configuration not stated)	39.14%	63.68%
CNC(=O)[C@@H](c1ccccc1OC)N1CCC[C@H]1C(=O)N1CCC1.Cl	14.84%	-22.44% and -4.631%
O=C(c1nnn(-c2ccccc2Cl)c1-c1ccccn1)N1CCSCC1	0.8718%	-0.1818% and 14.64%
O=C(O)C(F)(F)F.[H][C@@]12CN(C(=O)c3ccc(C)nc3)C[C@]1([H])OCCN2CCN1CCCC1	6.716%	-11.31%
CCCN(CC(=O)N1CCNCC1)C(=O)c1cccc(Cl)c1.O=C(O)C(F)(F)F	-3.355%	9.738%
O=C(O)C(F)(F)F.O=C(c1cccnc1)N1CCOC2(COCCN(c3cncnc3)C2)C1 (configuration not stated)	-19.82%	-15%
Cc1n[nH]c(C)c1C1COCCN1c1ncnc2sccc12 (configuration not stated)	-7.998% and -8.558%	14.04%
COc1cc(C(=O)N2CCCS2(=O)=O)ccc1OC(C)C	2.458%	-15.79%
O=C(c1cccs1)N1CCC2(CC1)CN(c1cncnc1)C(=O)CO2	4.023% and -13.22%	-26.23%
CC(CC(=O)c1ccco1)NC(=O)c1ccon1 (configuration not stated)	5.781%	6.098%
OC1(CN2CCOC(Cn3cccn3)C2)CCCCC1 (configuration not stated)	-7.532%	-5.874%
c1ccc2[nH]c(C3CCN(Cc4nnc(C5CC5)o4)CC3)cc2c1	-30.26%	10.61%
COc1cc2nc(NCc3scnc3C)nc(N)c2cc1OC	30.46%	41.59%
CCn1ncc2c1CCCC2NCc1cc(OC)cc(OC)c1 (configuration not stated)	8.025%	5.494%
CC(C)Oc1ncc(C(=O)N2CCC(NC(=O)C3CC3)CC2)cc1Cl	-22.34%	-34.48%
Cc1ccc(CNc2cc(N3CCCC3CO)ncn2)s1 (configuration not stated)	5.513%	10.59%
O=C(Cn1nc2c(cc1=O)CCCC2)N[C@@H](C(=O)O)c1ccccc1	-5.568%	-8.066%
CCCN1CCN(Cc2cn(CCC(N)=O)c3ccccc23)CC1	12.71% and -5.228%	1.339% and 2.056%
COCC1CN(Cc2csc(C)n2)Cc2nccn2C1.O=C(O)C(F)(F)F (configuration not stated)	-36.2%	-0.8998% and -10.03%
Cc1nc(CN2CCCC2c2[nH]ncc2C(=O)N(C)C)cs1 (configuration not stated)	-3.75% and -6.878%	-2.922%
CN1CCC2(CC1)CN(CC1CC1)CC21CCNC1=O.O=C(O)C(F)(F)F.O=C(O)C(F)(F)F (configuration not stated)	10.45%	14.01%
COCCn1cnc2ccc(NC(=O)CCCn3cccn3)cc2c1=O	-0.5004%	18.43%
Cc1ccc(C(=O)N2CCCS2(=O)=O)cc1Cl	-16.34%	-12.11%
C[C@@H]1CN(S(=O)(=O)N2CCCCCC2)C[C@@]1(O)C1CCC1	4.805%	-4.187% and 1.765%
Cn1cc(C(=O)N2CCCC2CCc2ccccc2)cn1 (configuration not stated)	-8.821%	-6.868%
Cl.FC(F)CNc1cnc(C2CCNCC2)cn1	0.9195% and -1.61%	-20.19%